Assay [1] deals with FIR–FLAG (far-upstream element-binding protein-interacting repressor, FLAG-tagged), expressed in HeLa cells (UniProt Q9UHX1). Briefly: co-IP; pull-down from HeLa cells stably expressing FIR–FLAG or FIRΔexon2–FLAG; blot for DNA-PKcs and SAP155.
For assay [2] the target is unchanged. Description: co-IP; pull-down from HeLa cells transiently expressing FIR–FLAG, FIRΔexon2–FLAG or PUF60–FLAG; blot for Ku86 and SAP155; mock: empty vector.

Amino acid sequences for entries named in this document (tags omitted). A change or cut given only in a name is not applied to a line headed by its entry. Chains listed by the source or under a name are the forms on record and can include a tag or linker.
FIR–FLAG (far-upstream element-binding protein-interacting repressor, FLAG-tagged), expressed in HeLa cells (Q9UHX1, form named): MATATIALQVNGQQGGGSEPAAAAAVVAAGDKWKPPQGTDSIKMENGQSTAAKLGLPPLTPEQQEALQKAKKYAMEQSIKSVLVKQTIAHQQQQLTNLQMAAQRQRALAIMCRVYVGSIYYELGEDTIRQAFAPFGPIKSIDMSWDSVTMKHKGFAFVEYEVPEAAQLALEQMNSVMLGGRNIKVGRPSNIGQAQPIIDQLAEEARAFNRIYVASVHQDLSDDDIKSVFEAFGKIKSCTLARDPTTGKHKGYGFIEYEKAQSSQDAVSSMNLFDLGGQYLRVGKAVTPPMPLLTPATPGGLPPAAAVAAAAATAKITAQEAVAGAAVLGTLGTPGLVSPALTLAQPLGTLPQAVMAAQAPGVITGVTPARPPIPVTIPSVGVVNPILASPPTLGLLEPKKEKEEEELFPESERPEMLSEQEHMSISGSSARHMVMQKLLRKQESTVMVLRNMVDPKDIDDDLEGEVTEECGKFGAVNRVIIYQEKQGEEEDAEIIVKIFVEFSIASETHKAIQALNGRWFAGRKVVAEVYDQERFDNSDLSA
UniProt P78527: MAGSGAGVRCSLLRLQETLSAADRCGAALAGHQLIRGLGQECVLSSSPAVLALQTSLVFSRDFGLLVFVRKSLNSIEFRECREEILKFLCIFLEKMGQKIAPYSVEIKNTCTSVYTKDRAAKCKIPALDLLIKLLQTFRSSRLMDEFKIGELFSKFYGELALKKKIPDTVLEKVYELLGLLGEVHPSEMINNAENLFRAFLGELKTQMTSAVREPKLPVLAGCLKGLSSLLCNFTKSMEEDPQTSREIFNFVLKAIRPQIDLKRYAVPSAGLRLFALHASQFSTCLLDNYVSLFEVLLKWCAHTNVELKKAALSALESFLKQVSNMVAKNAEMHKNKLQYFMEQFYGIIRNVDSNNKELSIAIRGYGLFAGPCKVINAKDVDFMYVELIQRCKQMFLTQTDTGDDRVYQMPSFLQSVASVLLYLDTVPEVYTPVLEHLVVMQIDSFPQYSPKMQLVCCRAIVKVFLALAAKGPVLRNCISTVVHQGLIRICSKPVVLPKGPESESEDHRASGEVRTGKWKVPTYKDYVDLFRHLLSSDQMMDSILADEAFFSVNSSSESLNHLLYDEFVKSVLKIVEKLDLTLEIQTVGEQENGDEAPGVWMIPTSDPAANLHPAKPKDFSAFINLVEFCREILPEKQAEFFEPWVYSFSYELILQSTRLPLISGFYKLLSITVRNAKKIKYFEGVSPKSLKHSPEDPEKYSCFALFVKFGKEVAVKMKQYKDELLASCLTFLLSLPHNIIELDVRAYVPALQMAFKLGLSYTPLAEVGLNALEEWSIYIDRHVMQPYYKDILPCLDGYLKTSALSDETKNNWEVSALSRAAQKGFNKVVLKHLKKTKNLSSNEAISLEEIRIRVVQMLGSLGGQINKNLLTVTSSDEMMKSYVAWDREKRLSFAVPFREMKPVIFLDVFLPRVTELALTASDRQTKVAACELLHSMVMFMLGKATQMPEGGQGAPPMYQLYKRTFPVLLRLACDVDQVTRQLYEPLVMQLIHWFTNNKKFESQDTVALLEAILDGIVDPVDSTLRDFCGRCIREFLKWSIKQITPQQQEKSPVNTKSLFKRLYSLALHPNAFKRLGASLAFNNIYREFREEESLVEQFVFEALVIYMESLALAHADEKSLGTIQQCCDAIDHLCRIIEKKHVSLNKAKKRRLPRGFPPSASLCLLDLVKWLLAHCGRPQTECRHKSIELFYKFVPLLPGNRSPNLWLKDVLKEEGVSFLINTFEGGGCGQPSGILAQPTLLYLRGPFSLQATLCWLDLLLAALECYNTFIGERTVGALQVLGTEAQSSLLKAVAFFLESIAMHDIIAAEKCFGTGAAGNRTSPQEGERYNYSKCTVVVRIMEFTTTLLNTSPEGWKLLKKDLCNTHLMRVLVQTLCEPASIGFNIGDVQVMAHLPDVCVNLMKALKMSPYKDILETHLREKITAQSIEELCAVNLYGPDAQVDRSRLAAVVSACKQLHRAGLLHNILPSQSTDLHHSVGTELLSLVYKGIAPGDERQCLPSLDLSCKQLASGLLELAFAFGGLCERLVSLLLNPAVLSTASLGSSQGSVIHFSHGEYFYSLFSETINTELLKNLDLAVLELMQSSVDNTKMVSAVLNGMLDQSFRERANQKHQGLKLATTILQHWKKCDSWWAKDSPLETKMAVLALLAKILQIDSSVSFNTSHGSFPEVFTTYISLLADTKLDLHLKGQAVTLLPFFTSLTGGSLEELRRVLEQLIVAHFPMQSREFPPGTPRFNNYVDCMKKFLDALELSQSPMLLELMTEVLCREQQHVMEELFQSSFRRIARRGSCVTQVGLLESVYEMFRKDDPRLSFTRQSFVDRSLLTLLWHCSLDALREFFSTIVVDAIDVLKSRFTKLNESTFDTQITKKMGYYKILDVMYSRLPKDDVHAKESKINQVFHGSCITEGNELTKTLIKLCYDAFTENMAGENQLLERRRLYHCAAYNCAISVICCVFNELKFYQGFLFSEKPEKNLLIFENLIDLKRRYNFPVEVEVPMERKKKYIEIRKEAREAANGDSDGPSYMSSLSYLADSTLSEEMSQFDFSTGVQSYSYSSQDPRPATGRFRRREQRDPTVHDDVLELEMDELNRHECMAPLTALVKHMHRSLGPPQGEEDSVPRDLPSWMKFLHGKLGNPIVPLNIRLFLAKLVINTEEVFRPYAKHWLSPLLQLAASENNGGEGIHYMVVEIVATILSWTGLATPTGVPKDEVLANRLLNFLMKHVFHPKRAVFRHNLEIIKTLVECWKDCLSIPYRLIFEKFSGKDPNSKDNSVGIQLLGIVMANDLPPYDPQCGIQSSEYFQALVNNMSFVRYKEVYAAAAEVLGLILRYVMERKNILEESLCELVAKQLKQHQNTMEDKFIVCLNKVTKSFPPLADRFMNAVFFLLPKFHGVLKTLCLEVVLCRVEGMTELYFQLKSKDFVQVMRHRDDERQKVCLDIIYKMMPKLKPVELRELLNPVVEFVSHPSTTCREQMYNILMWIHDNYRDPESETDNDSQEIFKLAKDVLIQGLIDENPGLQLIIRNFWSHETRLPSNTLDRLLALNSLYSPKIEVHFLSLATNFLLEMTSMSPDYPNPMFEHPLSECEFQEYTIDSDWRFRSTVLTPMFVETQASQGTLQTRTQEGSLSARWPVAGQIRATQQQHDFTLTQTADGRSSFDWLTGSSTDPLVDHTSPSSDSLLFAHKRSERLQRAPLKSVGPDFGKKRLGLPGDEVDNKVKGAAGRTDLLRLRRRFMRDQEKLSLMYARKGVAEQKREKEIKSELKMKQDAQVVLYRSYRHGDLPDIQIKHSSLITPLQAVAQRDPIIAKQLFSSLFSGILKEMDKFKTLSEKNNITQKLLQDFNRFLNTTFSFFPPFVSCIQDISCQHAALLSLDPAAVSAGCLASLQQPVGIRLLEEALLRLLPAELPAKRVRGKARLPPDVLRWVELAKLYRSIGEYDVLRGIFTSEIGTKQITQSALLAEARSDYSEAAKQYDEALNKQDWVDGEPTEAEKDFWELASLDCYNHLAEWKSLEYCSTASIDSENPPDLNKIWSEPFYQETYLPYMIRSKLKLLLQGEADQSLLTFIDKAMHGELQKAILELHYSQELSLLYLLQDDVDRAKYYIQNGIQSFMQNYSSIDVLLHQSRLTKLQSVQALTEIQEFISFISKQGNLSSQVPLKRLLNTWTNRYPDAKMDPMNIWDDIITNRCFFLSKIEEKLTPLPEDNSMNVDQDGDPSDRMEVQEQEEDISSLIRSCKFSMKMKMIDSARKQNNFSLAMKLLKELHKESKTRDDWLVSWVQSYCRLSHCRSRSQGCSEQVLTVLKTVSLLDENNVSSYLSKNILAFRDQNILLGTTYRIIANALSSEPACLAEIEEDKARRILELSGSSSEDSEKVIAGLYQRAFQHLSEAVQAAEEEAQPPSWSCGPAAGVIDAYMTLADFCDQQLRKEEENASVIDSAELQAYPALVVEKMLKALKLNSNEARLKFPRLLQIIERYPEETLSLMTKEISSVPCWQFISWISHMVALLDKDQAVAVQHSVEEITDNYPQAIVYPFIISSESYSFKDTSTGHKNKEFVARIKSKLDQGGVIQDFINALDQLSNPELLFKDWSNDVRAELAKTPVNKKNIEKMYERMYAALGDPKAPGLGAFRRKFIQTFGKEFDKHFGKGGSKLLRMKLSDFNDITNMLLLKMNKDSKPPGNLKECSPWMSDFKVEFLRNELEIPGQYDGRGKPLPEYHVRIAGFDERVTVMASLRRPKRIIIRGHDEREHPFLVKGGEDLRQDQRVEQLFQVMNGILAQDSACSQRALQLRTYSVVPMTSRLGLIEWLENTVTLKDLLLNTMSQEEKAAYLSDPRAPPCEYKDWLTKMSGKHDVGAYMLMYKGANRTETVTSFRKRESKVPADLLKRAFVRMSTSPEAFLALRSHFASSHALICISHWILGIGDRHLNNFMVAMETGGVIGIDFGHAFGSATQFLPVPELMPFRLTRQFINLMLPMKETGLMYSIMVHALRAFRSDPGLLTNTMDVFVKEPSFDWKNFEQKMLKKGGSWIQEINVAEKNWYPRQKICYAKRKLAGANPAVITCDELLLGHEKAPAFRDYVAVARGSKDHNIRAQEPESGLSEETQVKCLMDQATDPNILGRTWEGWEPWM
UniProt O75533: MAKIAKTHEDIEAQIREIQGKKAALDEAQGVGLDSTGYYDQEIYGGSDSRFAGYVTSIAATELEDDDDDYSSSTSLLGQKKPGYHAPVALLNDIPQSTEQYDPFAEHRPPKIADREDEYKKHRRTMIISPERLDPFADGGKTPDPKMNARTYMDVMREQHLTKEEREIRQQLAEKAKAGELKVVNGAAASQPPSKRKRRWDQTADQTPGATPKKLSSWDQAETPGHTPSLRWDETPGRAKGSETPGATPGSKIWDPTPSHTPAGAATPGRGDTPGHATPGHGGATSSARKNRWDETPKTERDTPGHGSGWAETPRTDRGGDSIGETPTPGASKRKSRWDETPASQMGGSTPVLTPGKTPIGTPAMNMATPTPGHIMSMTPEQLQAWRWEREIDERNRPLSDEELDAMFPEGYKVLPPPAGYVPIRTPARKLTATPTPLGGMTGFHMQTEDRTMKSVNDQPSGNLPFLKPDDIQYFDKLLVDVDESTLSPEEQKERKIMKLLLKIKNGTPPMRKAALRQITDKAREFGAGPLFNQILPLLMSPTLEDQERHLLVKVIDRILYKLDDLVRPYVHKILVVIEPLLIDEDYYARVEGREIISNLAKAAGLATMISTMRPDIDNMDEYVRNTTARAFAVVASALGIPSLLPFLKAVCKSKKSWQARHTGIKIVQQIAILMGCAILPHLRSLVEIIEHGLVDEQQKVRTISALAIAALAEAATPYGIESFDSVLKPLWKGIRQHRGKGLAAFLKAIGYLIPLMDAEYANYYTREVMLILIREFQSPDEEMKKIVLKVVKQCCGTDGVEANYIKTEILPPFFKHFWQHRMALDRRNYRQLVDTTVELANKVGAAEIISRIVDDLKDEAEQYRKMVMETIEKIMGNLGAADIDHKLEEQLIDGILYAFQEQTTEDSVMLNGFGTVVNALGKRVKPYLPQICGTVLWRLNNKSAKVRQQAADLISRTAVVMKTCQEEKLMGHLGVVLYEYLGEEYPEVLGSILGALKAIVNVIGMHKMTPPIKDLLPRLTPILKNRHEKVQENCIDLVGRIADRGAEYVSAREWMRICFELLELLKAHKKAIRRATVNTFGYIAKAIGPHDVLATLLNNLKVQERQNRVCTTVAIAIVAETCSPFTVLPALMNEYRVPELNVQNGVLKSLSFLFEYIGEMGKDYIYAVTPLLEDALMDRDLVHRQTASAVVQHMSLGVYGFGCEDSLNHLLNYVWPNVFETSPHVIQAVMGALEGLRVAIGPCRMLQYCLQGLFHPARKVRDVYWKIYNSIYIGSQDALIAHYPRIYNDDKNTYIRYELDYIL

Results are given in words; binding and its absence hold for the method and conditions named. Binding seen in cells or lysates may run through a third protein. Some entries that bind do so weakly or less than the wild type.

Take “DNA-PKcs (catalytic subunit of DNA protein kinase) (from UniProt P78527 1-4128)”: the binding result in assay [1] was “binds”.
Turning to “SAP155 (subunit of splicing factor 3b) (from UniProt O75533 1-1304)”, in assay [2], the binding entry is reported as “binds”.

The values above are taken from PMC4058014.
